No constants are given. Whether binding was seen depends on the method and setting. In cells and extracts the contact can be indirect. Some entries that bind do so weakly or less than the wild type.
Molecular target: endogenous β-Catenin of embryonic stem cells (ESCs) (UniProt Q02248)
Test: Co-IP with anti-Myc antibody from BIO-treated ESCs, immunoblot for β-Catenin

Chains of the proteins cited; added tags and fusions are not shown. Lines headed by an entry give the natural chain unless they say otherwise; changes in a name come on top. A line that says so, or that is headed by a name, gives the form on record, which may keep a tag or linker. Residues count along the entry.
UniProt Q02248, residues 2-781: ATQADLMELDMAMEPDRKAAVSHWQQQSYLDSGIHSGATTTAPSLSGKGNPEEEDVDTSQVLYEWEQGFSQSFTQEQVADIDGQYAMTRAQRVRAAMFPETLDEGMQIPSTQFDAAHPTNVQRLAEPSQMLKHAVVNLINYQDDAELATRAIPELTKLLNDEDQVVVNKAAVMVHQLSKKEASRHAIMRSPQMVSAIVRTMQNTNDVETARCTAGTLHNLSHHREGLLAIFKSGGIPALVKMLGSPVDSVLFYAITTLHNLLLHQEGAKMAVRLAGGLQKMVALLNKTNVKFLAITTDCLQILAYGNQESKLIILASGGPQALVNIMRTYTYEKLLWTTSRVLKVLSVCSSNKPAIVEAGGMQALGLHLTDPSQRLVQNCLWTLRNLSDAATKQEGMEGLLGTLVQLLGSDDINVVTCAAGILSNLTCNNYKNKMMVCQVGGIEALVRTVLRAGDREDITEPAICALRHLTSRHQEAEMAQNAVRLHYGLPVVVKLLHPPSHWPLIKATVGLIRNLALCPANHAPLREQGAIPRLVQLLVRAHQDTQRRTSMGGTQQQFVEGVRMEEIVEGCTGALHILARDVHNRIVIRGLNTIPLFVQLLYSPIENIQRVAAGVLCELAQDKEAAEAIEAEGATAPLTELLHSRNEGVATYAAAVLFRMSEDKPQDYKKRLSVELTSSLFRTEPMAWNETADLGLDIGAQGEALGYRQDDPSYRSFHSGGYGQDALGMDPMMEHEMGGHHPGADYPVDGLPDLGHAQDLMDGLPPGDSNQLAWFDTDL
constitutively activated membrane-bound Notch1, wild-type at V1744 (Q01705, residues 1704-2183): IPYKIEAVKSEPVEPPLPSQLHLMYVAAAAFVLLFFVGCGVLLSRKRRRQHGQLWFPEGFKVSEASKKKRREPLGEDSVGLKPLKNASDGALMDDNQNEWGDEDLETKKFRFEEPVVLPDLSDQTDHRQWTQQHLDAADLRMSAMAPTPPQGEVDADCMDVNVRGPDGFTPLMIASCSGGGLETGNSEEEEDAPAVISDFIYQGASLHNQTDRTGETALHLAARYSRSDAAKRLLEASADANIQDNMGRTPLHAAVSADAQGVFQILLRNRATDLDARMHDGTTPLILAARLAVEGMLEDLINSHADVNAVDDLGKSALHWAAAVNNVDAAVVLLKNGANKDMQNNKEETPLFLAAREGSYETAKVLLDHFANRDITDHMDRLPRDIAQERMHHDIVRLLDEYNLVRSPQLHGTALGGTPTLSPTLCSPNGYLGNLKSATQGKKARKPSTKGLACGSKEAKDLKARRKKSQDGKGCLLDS
tethered Notch1 V1744K (Q01705, form named): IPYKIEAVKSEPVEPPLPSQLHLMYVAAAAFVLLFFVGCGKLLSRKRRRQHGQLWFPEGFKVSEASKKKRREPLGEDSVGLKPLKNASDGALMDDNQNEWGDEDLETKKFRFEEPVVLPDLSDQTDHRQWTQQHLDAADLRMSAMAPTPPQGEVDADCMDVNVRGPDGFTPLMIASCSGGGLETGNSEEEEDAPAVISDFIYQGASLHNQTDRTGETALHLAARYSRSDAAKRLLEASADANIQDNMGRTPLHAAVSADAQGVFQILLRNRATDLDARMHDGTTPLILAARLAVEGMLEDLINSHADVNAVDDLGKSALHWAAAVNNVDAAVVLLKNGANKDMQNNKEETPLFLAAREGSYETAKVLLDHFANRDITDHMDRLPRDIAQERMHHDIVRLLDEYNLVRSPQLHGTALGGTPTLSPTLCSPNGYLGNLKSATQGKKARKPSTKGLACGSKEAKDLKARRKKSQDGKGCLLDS

| binding | Substance |
| --- | --- |
| binds | constitutively activated membrane-bound Notch1, wild-type at V1744 (from UniProt Q01705 1704-2183) (receptor) |
| binds | tethered Notch1 V1744K (from UniProt Q01705 1704-2183) (receptor) |
